Literature values, collected in article PMC6797721, “Unveil the Anticancer Potential of Limomene Based Therapeutic Deep Eutectic Solvents” (Scientific Reports, 2019).

Design: method as in PMID 26142248, doi:10.1016/j.fluid.2013.06.032
Conditions: cited from earlier work

Compound: CC(C)Cc1ccc(C(C)C(=O)O)cc1 (stereo not shown) [IBU, Ibuprofen]
- Solubility in water: ≈ 21 mg L^-1
